Results are given in words; binding and its absence hold for the method and conditions named. Binding can be weak; no strength is given.
Biological target: integrin αvβ3, purified from human placenta (human)
Assay: competition ELISA, biotinylated fibrinogen on immobilized αvβ3

Binder | binding
LM609 grafted antibody combinatorial clone C59 (Fab, V domains shown, Fab) VH: QVQLVESGGGVVQPGRSLRLSCAASGFTFSSYDMSWVRQAPGKGLEWVAKVSSGGGSTYYPDTVQGRFTISRDNSKNTLYLQMNSLRAEDTAVYYCARHNYGSFADWGQGTTVTVSS VL: EIVLTQSPATLSLSPGERATLSCQASQSISNFLHWYQQRPGQAPRLLIRYRSQSISGIPARFSGSGSGTDFTLTISSLEPEDFAVYYCQQSGSWPHTFGGGTKVEIK | binds
LM609 grafted antibody variant S102 (Fab, V domains shown, Fab; also called clone S102) VH: QVQLVESGGGVVQPGRSLRLSCAASGFTFSSYDMSWVRQAPGKGLEWVAKVSSGGGSTYYLDTVQGRFTISRDNSKNTLYLQMNSLRAEDTAVYYCARHNYGSFASWGQGTTVTVSS VL: EIVLTQSPATLSLSPGERATLSCQASQSISNHLHWYQQRPGQAPRLLIRYRSQSISGIPARFSGSGSGTDFTLTISSLEPEDFAVYYCQQSGSWPHTFGGGTKVEIK | binds
